Some of the results follow.
The sequences below were run against OsWRKY34 (Oryza sativa, UniProt Q0JBA9 1-250) (assay: protein-binding microarray (RPBM); PBS, 2% BSA, 51.3 ng/ul salmon testes DNA, 50 uM zinc acetate, 200 nM TF, 25 C, 1 h; high values mean tight binding). Conditions: protein: recombinant; tags: N-terminal polyhistidine and DsRed monomer fusion (pET32a); label: CyDye5-dUTP incorporated in the synthesized complementary strand; 3' TTTTT single-stranded linker to array surface; dsDNA, one strand shown.
In short: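 The binding signal is fluorescence intensity per feature, in arbitrary units, read on an Axon 4000B scanner. Polyhistidine- and DsRed-tagged transcription factors (N-terminal fusions) from E. coli BL21-CodonPlus were purified on Ni–NTA and applied at 200 nM for 1 h at 25 °C to a double-stranded, BSA-blocked custom Agilent array in buffer with 50 µM zinc acetate.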

The chains behind the UniProt entries cited, without tags or fusion partners.
UniProt Q0JBA9, entry or part of it: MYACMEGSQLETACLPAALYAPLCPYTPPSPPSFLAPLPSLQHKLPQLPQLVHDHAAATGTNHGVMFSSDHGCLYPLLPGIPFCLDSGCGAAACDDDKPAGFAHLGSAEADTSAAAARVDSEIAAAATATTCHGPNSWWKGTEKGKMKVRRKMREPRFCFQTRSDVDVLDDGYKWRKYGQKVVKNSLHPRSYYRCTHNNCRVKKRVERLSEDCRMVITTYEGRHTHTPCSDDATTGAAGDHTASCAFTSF

Sequence	binding signal
CGTCTGCTCCACCATCCACCACCACCACGCTACGCTTTCCCGGAGTCACCTAGTGCAG	10900 fluorescence intensity (a.u.)
GGCCAGTTATCATCCTACAATAATATTGTTTGGTCCACATCGGAGTCACCTAGTGCAG	8160 fluorescence intensity (a.u.)
TCGCTACTTACACTCTCCTTCCATCTCCATATATCAAATTCGGAGTCACCTAGTGCAG	11000 fluorescence intensity (a.u.)
TTTAGCACGTATTTGACCGTTCGTCTTATTCAAAAACTTTCGGAGTCACCTAGTGCAG	8790 fluorescence intensity (a.u.)
CGTCAATCTTGTGTTTCTTTCATTCCATTGTACTTACAATCGGAGTCACCTAGTGCAG	9270 fluorescence intensity (a.u.)
TGGTTCCCATTGTGTGCGTTAACTTGCTGAGATATGGTGACGGAGTCACCTAGTGCAG	9830 fluorescence intensity (a.u.)
TCCCTCTGTTCAAAATGTTTGACACCGTTGACTTTTTAAGCGGAGTCACCTAGTGCAG	20700 fluorescence intensity (a.u.)
CATGTGGCACTAGCTTCTCTACCGCCTATGTTGTTGTCTGCGGAGTCACCTAGTGCAG	13700 fluorescence intensity (a.u.)
AAGTACGAGTTCATCCCCAATCCTCCAATCCTTCGGTTCCCGGAGTCACCTAGTGCAG	8350 fluorescence intensity (a.u.)
CTCCTGCGCTCGCCTCCTCGCCCAATTCCGTCCCCAATTCCGGAGTCACCTAGTGCAG	9570 fluorescence intensity (a.u.)
CTTCTCTTCTTCCTTGTTCGTTCATCCCCTAACCCTTTCTCGGAGTCACCTAGTGCAG	9270 fluorescence intensity (a.u.)
TATTTATTTATTTATTTATTTACTAGTAATATAATATATACGGAGTCACCTAGTGCAG	8080 fluorescence intensity (a.u.)
ACTCCCTTTCCATCAGACACATTTCACCATTAAGTTTCTTCGGAGTCACCTAGTGCAG	12100 fluorescence intensity (a.u.)
ATTATCCTTAAGTCTTGCGGCACCCAGTTCTTTTGTTCTTCGGAGTCACCTAGTGCAG	11000 fluorescence intensity (a.u.)
GCCATCTGCCACCGCTTTTCACCTTTTTCTCGCCTACAAACGGAGTCACCTAGTGCAG	9680 fluorescence intensity (a.u.)
CGTTGACTTTTTTAAATATATTTAGCAGTTCGTCTTATTACGGAGTCACCTAGTGCAG	16500 fluorescence intensity (a.u.)
TGTCATATTCCTGCACCTGCAGTTGTTGCGTGTTCATAACCGGAGTCACCTAGTGCAG	9700 fluorescence intensity (a.u.)
GTGGAGGTCGGGGTCGGGGAGGATGAGGAGGAGGGTGTGGCGGAGTCACCTAGTGCAG	10100 fluorescence intensity (a.u.)
TAGATTAATTATGCATCCTCCGTTCCTCCAGCCGATCGATCGGAGTCACCTAGTGCAG	8190 fluorescence intensity (a.u.)
GTTTTTAATTTCGATAATATTTGATTCTGTTTTCGTGTCCCGGAGTCACCTAGTGCAG	8930 fluorescence intensity (a.u.)
ATACAATTCTCACTGCCACCTTATTGCTAGCTGCTACAAACGGAGTCACCTAGTGCAG	12700 fluorescence intensity (a.u.)

Sequence	binding signal
CTAACTCTCCAGCTCTATTTATCAATGTCGATTTCTTACTCGGAGTCACCTAGTGCAG	10500 fluorescence intensity (a.u.)
GGATGGTGGTGATGGCGAAAGATTAACGTAGAATGTACCGCGGAGTCACCTAGTGCAG	8620 fluorescence intensity (a.u.)
ATAGATGACGCCGTTGATTTTTTCTCATATGTTTGACCATCGGAGTCACCTAGTGCAG	11600 fluorescence intensity (a.u.)
TGATCCGGTTCCCTTTTGACCTCACTGCACTGTCCCAGATCGGAGTCACCTAGTGCAG	10300 fluorescence intensity (a.u.)
AGCAGAGTCATAGTTTTTTCATGTAATTCACTGACCTCTCCGGAGTCACCTAGTGCAG	8570 fluorescence intensity (a.u.)
CGGAGTACGCGGTACACGGCCATCGCTTTTAAAATCTTGTCGGAGTCACCTAGTGCAG	8040 fluorescence intensity (a.u.)
TATCACTTGCACTCCTATTCTTTCACTTATTCGCTTATTCCGGAGTCACCTAGTGCAG	8610 fluorescence intensity (a.u.)
GGACAGAACGTTGCCGCCTTTTATTCATGTAGAGACAGACCGGAGTCACCTAGTGCAG	8930 fluorescence intensity (a.u.)
CTGGCAGTGGAGCCACCGTGTCACTGTCACCTACCAAAGCCGGAGTCACCTAGTGCAG	8550 fluorescence intensity (a.u.)
TTTCCCGTGTTGTCATCTATCTGCTCATATTTTTTTAAAACGGAGTCACCTAGTGCAG	8320 fluorescence intensity (a.u.)
TTTAGGGTTTTCTCATTGAAGTTTATTTTTCAGCCTTTACCGGAGTCACCTAGTGCAG	8540 fluorescence intensity (a.u.)
TTTCATGTTCGTGAAAATTATACATTTTATATGCGCCTTTCGGAGTCACCTAGTGCAG	8720 fluorescence intensity (a.u.)
CACTTTCTAGATCGATGTTCATTTGGTTTTCTTCTTTACTCGGAGTCACCTAGTGCAG	9740 fluorescence intensity (a.u.)
CTTTAATTTTAATTAGAGTTTCTTGCATCGGTTTCCAATGCGGAGTCACCTAGTGCAG	27700 fluorescence intensity (a.u.)
GGGGTTATATATTTTTTATATCTAAATTTTGAGAAAGCTACGGAGTCACCTAGTGCAG	10600 fluorescence intensity (a.u.)
TTTTACAACAGTTTCAAGCAGTGGTCGCAAGTTATTTTCCCGGAGTCACCTAGTGCAG	8840 fluorescence intensity (a.u.)
GTCTCTGCTCCCCGCTATTTACACTTCGCAATACCCAGATCGGAGTCACCTAGTGCAG	8350 fluorescence intensity (a.u.)
GCATACTGGCATATTTCTTTCTTTCTTTCTTTTTGAAAAACGGAGTCACCTAGTGCAG	8480 fluorescence intensity (a.u.)
GGTGGGTAGGGTTAATTTTGGTTGGAGGTAGAGAGAGAGACGGAGTCACCTAGTGCAG	14300 fluorescence intensity (a.u.)
ACATTTACTAATCCACTTACACTTTCGTCCTCGCTTCATGCGGAGTCACCTAGTGCAG	8490 fluorescence intensity (a.u.)
GTCACCGCCCACAAACCCATCACCGGCCGGCGAGGGCCCTCGGAGTCACCTAGTGCAG	11900 fluorescence intensity (a.u.)

Sequence	binding signal
AACCTCAATGCCCTTATCCGATTGCCATTAGGGCTCTAGCCGGAGTCACCTAGTGCAG	8820 fluorescence intensity (a.u.)
CCTCTTTTTCTATCCTGGATTCGCCGCTGGTACGGGTTGACGGAGTCACCTAGTGCAG	14000 fluorescence intensity (a.u.)
GACGTCAGCATACACCTCGGACACTGAGGTCTTAGTTTCACGGAGTCACCTAGTGCAG	8310 fluorescence intensity (a.u.)
TGCAAACCCGCCTATTCAGGACGATCCAGACACATCACATCGGAGTCACCTAGTGCAG	8040 fluorescence intensity (a.u.)
TAACCCGCCTCCGACTCTTGGTTCTGCTTCGCCTAACATTCGGAGTCACCTAGTGCAG	8480 fluorescence intensity (a.u.)
CAATGCACTGTTCATCTTCAGTAGTTATGTTTTCTCAGTGCGGAGTCACCTAGTGCAG	10400 fluorescence intensity (a.u.)
TGCACCCTCTCAACACTCCGCGGCAATAACTCCTTCGCCCCGGAGTCACCTAGTGCAG	8940 fluorescence intensity (a.u.)
TGCTGTTGAGTTGCATTCCTGATTGCTTTGCCTTTTCTAACGGAGTCACCTAGTGCAG	8620 fluorescence intensity (a.u.)
ATATATATGCAGCCAGCATCTCTCTCCCTGTGATCAAATTCGGAGTCACCTAGTGCAG	8310 fluorescence intensity (a.u.)
GATATTATTTCGGCTGATTTTTTTTTTCATTTTTTATGAACGGAGTCACCTAGTGCAG	10200 fluorescence intensity (a.u.)
AGTGAGTTTGTTTGTTTTGTTTTCCGCGCGTATGTTTTCCCGGAGTCACCTAGTGCAG	9060 fluorescence intensity (a.u.)
GTGCTGCCCAATTCCTCCACGCATCGCTGCATTTGGGTGACGGAGTCACCTAGTGCAG	8800 fluorescence intensity (a.u.)
CGGGGAGATCATGCTTCAATTCTTTCTCGGCGCGGCGGAGCGGAGTCACCTAGTGCAG	8700 fluorescence intensity (a.u.)
GCAGCAGGTGGATTTGCTTTGCCCTTCTCGCTTTTGTACACGGAGTCACCTAGTGCAG	10600 fluorescence intensity (a.u.)
TTATTAACGATGGTTTGGTTGTGAGGTGTTGGAGTCCTTTCGGAGTCACCTAGTGCAG	8110 fluorescence intensity (a.u.)
ACCCTTCAACGTCTGCAGGCGCGCTTCGCGAACGCGGTCCCGGAGTCACCTAGTGCAG	9300 fluorescence intensity (a.u.)
TTCTTTTGTTGTGTGGGTGTATGTTTTGGTTATGTGCATTCGGAGTCACCTAGTGCAG	8810 fluorescence intensity (a.u.)
ACGATGGATCGTAATTTCGTATTACATGTTTATTTTTGACCGGAGTCACCTAGTGCAG	8200 fluorescence intensity (a.u.)
TGTGCGGGTGATTTGTTATAACGACGCGTGTGGTGGGGCACGGAGTCACCTAGTGCAG	8770 fluorescence intensity (a.u.)
CCACATGCCGTCGTCGCCGTTCCAGTGCTTTCTGTCACCACGGAGTCACCTAGTGCAG	11800 fluorescence intensity (a.u.)
CTCGCCATCTCTGCCGCCGGTCCGCCGCCTCGCTCGCTCGCGGAGTCACCTAGTGCAG	9470 fluorescence intensity (a.u.)

Sequence	binding signal
ATCCCGCTTATCCCACTTCTAATTCATTTTTTCTTTTAAACGGAGTCACCTAGTGCAG	10900 fluorescence intensity (a.u.)
TTGCTCGCAGCTGCTTCTCCCTCAGCCAATCTGTCTGATCCGGAGTCACCTAGTGCAG	8310 fluorescence intensity (a.u.)
GCTTTCAGTTTAGTCTAGTGCATGTGCAGGGCTTCCCATCCGGAGTCACCTAGTGCAG	9860 fluorescence intensity (a.u.)
TTGTCCTGCGCTGTTCCTCTCTATCGACTCTCTCACTCCTCGGAGTCACCTAGTGCAG	13800 fluorescence intensity (a.u.)
CATCCCAGGTGGGGCCCTAGCCTACTTGTAGCACACCCGGCGGAGTCACCTAGTGCAG	8060 fluorescence intensity (a.u.)
AGTTTCATGTTTTTCATGGGTATCTAATCTGAGCCGTTGACGGAGTCACCTAGTGCAG	9110 fluorescence intensity (a.u.)
TACCTGCTGCACTTTGCCATCCATCGATTTGATTTTATATCGGAGTCACCTAGTGCAG	8880 fluorescence intensity (a.u.)
AAGTTCCTTTTATGCATAGGCCGTGTTTAGTTCAGCGCAACGGAGTCACCTAGTGCAG	10800 fluorescence intensity (a.u.)
GAAACAGGCGCACATCCCACACCTACCCATTTGACCGTACCGGAGTCACCTAGTGCAG	8220 fluorescence intensity (a.u.)
TTCTGTTTCATATTATAATAAGTAATTTGACTTTTTCCTTCGGAGTCACCTAGTGCAG	8330 fluorescence intensity (a.u.)
TGGGAGGTCTCGTGGTGAATATTCCGCCGCTCGGTATCTTCGGAGTCACCTAGTGCAG	8140 fluorescence intensity (a.u.)
ATCAAACCTTTCATACACACAACTTTTCTATCACATCGTACGGAGTCACCTAGTGCAG	8560 fluorescence intensity (a.u.)
ACAGATTTTGTATGAATTACACTAACTTCTCCGAATCTACCGGAGTCACCTAGTGCAG	9500 fluorescence intensity (a.u.)
AAAATCTCGTTCCGTAAATTTACGAGTTAACCCTTGTCCACGGAGTCACCTAGTGCAG	8250 fluorescence intensity (a.u.)
AGATTTTGGGTGGATGTGACAATATATATATATATATATACGGAGTCACCTAGTGCAG	11800 fluorescence intensity (a.u.)
GGGTGCATTGATGTTTTTGAAAGCTATTATAGGATCAATCCGGAGTCACCTAGTGCAG	8220 fluorescence intensity (a.u.)
AGCACCGGCATCCGGATCCGCCGTCCCCGGGCGTCCACCTCGGAGTCACCTAGTGCAG	8640 fluorescence intensity (a.u.)
GATCATCTGTAGTCTGTAGAACAATCCTGTTTTCTATTCTCGGAGTCACCTAGTGCAG	8310 fluorescence intensity (a.u.)
ACATCTCTATCTCCGGATCTCATCTCACTCCGCTAGCTTTCGGAGTCACCTAGTGCAG	9700 fluorescence intensity (a.u.)
AAATCATTTAGAAACACAACCTTTTCCACTGTTCAGGATTCGGAGTCACCTAGTGCAG	8030 fluorescence intensity (a.u.)
ACTACCAACAGATCAGCAGATAGCCTATTCCAATCCGTTCCGGAGTCACCTAGTGCAG	8320 fluorescence intensity (a.u.)

Reference: PMC7819943, “Rice protein-binding microarrays: a tool to detect cis-acting elements near promoter regions in rice”
